Assay results: PubChem BioAssay AID186 (DTP/NCI, 2004)
The mice bore no tumour; each value counts animals alive of those treated. Survivors were counted at the toxicity check, usually on the fifth day, unless a day is given; later deaths do not show. Schedules are NCI's codes, taken here to give the interval after Q, in days (D) or hours (H), and the number of doses after X. Some doses were run more than once; their values stand side by side, smallest first.

Tested on: B6D2F1 mice, nontumored toxicity test, survival
Test: NCI In Vivo Anticancer Drug Screen. Data for tumor model Nontumored Animals (Toxicity Test) in B6D2F1 (BDF1) mice

In the case of `CC1CCC(NC(=O)N(CCCl)N=O)CC1` (stereo unspecified), the survivor count (dose: 3.0 mg/kg/injection, schedule: Q01DX009 (ip), vehicle: saline) is reported as 6 of 6, the survivor count (dose: 3.0 mg/kg/injection, schedule: Q03HX008 (ip), vehicle: saline) is reported as 6 of 6 and the survivor count (dose: 3.0 mg/kg/injection, schedule: Q03HX016 (ip), vehicle: saline) is reported as 6 of 6. For the same compound, the survivor count (dose: 3.0 mg/kg/injection, schedule: Q03HX024 (ip), vehicle: saline) was 6 of 6, the survivor count (dose: 3.12 mg/kg/injection, schedule: Q01DX017 (ip), vehicle: saline) was 6 of 6 and the survivor count (dose: 3.12 mg/kg/injection, schedule: Q06HX012 (ip), vehicle: saline) was 6 of 6. The survivor count (dose: 3.24 mg/kg/injection, schedule: Q04DX003 (ip), vehicle: other) was 5 of 5, the survivor count (dose: 3.75 mg/kg/injection, schedule: Q04DX003 (ip), vehicle: other) was 4 of 4 and the survivor count (dose: 5.0 mg/kg/injection, schedule: Q01DX005 (ip), vehicle: saline) was 6 of 6. For the same compound, the survivor count (dose: 5.0 mg/kg/injection, schedule: Q01DX009 (ip), vehicle: saline) was 6 of 6, the survivor count (dose: 5.0 mg/kg/injection, schedule: Q01DX009 (sc), vehicle: saline) was 6 of 6 and the survivor count (dose: 5.0 mg/kg/injection, schedule: Q03HX008 (ip), vehicle: saline) was 6 of 6. For the same compound, the survivor count (dose: 5.0 mg/kg/injection, schedule: Q03HX016 (ip), vehicle: saline) was 6 of 6, the survivor count (dose: 5.0 mg/kg/injection, schedule: Q03HX024 (ip), vehicle: saline) was 6 of 6 and the survivor count (dose: 5.0 mg/kg/injection, schedule: Q04DX002 (ip), vehicle: other) was 4 of 4. The survivor count (dose: 5.4 mg/kg/injection, schedule: Q04DX003 (ip), vehicle: other) was 5 of 5, the survivor count (dose: 6.25 mg/kg/injection, schedule: Q01DX017 (ip), vehicle: saline) was 6 of 6 and the survivor count (dose: 6.25 mg/kg/injection, schedule: Q06HX004 (ip), vehicle: saline) was 6 of 6. The survivor count (dose: 6.25 mg/kg/injection, schedule: Q06HX012 (ip), vehicle: saline) was 6 of 6, the survivor count (dose: 7.5 mg/kg/injection, schedule: Q04DX003 (ip), vehicle: other) was 4 of 4 and the survivor count (dose: 8.4 mg/kg/injection, schedule: Q01DX005 (ip), vehicle: saline) was 6 of 6. For the same compound, the survivor count (dose: 8.4 mg/kg/injection, schedule: Q01DX009 (ip), vehicle: saline) was 6 of 6, the survivor count (dose: 8.4 mg/kg/injection, schedule: Q01DX009 (oral), vehicle: saline) was 6 of 6 and the survivor count (dose: 8.4 mg/kg/injection, schedule: Q01DX009 (sc), vehicle: saline) was 6 of 6. For the same compound, the survivor count (dose: 8.4 mg/kg/injection, schedule: Q03HX008 (ip), vehicle: saline) was 6 of 6, the survivor count (dose: 8.4 mg/kg/injection, schedule: Q03HX016 (ip), vehicle: saline) was 6 of 6 and the survivor count (dose: 8.4 mg/kg/injection, schedule: Q03HX024 (ip), vehicle: saline) was 6 of 6. The survivor count (dose: 8.4 mg/kg/injection, schedule: Q04DX003 (ip), vehicle: saline) was 6 of 6, the survivor count (dose: 9.0 mg/kg/injection, schedule: Q04DX003 (ip), vehicle: other) was 5 of 5 and the survivor count (dose: 10.0 mg/kg/injection, schedule: Q04DX002 (ip), vehicle: other) was 4 of 4. The survivor count (dose: 10.8 mg/kg/injection, schedule: Q01DX001 (ip), vehicle: other) was 5 of 5, the survivor count (dose: 12.5 mg/kg/injection, schedule: Q01DX001 (ip), vehicle: saline) was 6 of 6 and the survivor count (dose: 12.5 mg/kg/injection, schedule: Q01DX017 (ip), vehicle: saline) was 3 of 6. The survivor count (dose: 12.5 mg/kg/injection, schedule: Q06HX004 (ip), vehicle: saline) was 6 of 6, the survivor count (dose: 12.5 mg/kg/injection, schedule: Q06HX012 (ip), vehicle: saline) was 6 of 6 and the survivor count (dose: 12.5 mg/kg/injection, schedule: Q08DX003 (ip), vehicle: saline) was 6 of 6. The survivor count (dose: 14.0 mg/kg/injection, schedule: Q01DX001 (ip), vehicle: saline) was 6 of 6, the survivor count (dose: 14.0 mg/kg/injection, schedule: Q01DX001 (sc), vehicle: saline) was 6 of 6 and the survivor count (dose: 14.0 mg/kg/injection, schedule: Q01DX005 (ip), vehicle: saline) was 6 of 6. The survivor count (dose: 14.0 mg/kg/injection, schedule: Q01DX009 (ip), vehicle: saline) was 6 of 6, the survivor count (dose: 14.0 mg/kg/injection, schedule: Q01DX009 (oral), vehicle: saline) was 5 of 6 and the survivor count (dose: 14.0 mg/kg/injection, schedule: Q01DX009 (sc), vehicle: saline) was 5 of 6. The survivor count (dose: 14.0 mg/kg/injection, schedule: Q03HX008 (ip), vehicle: saline) was 6 of 6, the survivor count (dose: 14.0 mg/kg/injection, schedule: Q03HX016 (ip), vehicle: saline) was 6 of 6 and the survivor count (dose: 14.0 mg/kg/injection, schedule: Q03HX024 (ip), vehicle: saline) was 6 of 6. The survivor count (dose: 14.0 mg/kg/injection, schedule: Q04DX003 (ip), vehicle: saline) was 6 of 6, the survivor count (dose: 14.0 mg/kg/injection, schedule: Q08DX002 (ip), vehicle: saline) was 6 of 6 and the survivor count (dose: 15.0 mg/kg/injection, schedule: Q04DX003 (ip), vehicle: other) was 4 of 4 and 5 of 5. The survivor count (dose: 18.0 mg/kg/injection, schedule: Q01DX001 (ip), vehicle: other) was 5 of 5, the survivor count (dose: 18.0 mg/kg/injection, schedule: Q01DX001 (ip), vehicle: saline with Tween-80) was 10 of 10 and the survivor count (dose: 20.0 mg/kg/injection, schedule: Q04DX002 (ip), vehicle: other) was 4 of 4. For the same compound, the survivor count (dose: 23.0 mg/kg/injection, schedule: Q01DX001 (ip), vehicle: saline) was 6 of 6, the survivor count (dose: 23.0 mg/kg/injection, schedule: Q01DX001 (oral), vehicle: saline) was 6 of 6 and the survivor count (dose: 23.0 mg/kg/injection, schedule: Q01DX001 (sc), vehicle: saline) was 6 of 6. The survivor count (dose: 23.0 mg/kg/injection, schedule: Q01DX005 (ip), vehicle: saline) was 6 of 6, the survivor count (dose: 23.0 mg/kg/injection, schedule: Q01DX009 (ip), vehicle: saline) was 6 of 6 and the survivor count (dose: 23.0 mg/kg/injection, schedule: Q01DX009 (oral), vehicle: saline) was 6 of 6. For the same compound, the survivor count (dose: 23.0 mg/kg/injection, schedule: Q01DX009 (sc), vehicle: saline) was 6 of 6, the survivor count (dose: 23.0 mg/kg/injection, schedule: Q03HX008 (ip), vehicle: saline) was 6 of 6 and the survivor count (dose: 23.0 mg/kg/injection, schedule: Q03HX016 (ip), vehicle: saline) was 6 of 6. The survivor count (dose: 23.0 mg/kg/injection, schedule: Q03HX024 (ip), vehicle: saline) was 6 of 6, the survivor count (dose: 23.0 mg/kg/injection, schedule: Q04DX003 (ip), vehicle: saline) was 6 of 6 and the survivor count (dose: 23.0 mg/kg/injection, schedule: Q08DX002 (ip), vehicle: saline) was 6 of 6. For the same compound, the survivor count (dose: 25.0 mg/kg/injection, schedule: Q01DX001 (ip), vehicle: saline) was 6 of 6, the survivor count (dose: 25.0 mg/kg/injection, schedule: Q01DX017 (ip), vehicle: saline) was 0 of 6 and the survivor count (dose: 25.0 mg/kg/injection, schedule: Q04DX003 (ip), vehicle: other) was 5 of 5. The survivor count (dose: 25.0 mg/kg/injection, schedule: Q06HX004 (ip), vehicle: saline) was 4 of 6, the survivor count (dose: 25.0 mg/kg/injection, schedule: Q06HX012 (ip), vehicle: saline) was 6 of 6 and the survivor count (dose: 25.0 mg/kg/injection, schedule: Q08DX003 (ip), vehicle: saline) was 6 of 6. The survivor count (dose: 28.0 mg/kg/injection, schedule: Q01DX001 (ip), vehicle: saline with Tween-80) was 10 of 10, the survivor count (dose: 30.0 mg/kg/injection, schedule: Q01DX001 (ip), vehicle: other) was 5 of 5 and the survivor count (dose: 30.0 mg/kg/injection, schedule: Q04DX003 (ip), vehicle: other) was 4 of 4. For the same compound, the survivor count (dose: 39.0 mg/kg/injection, schedule: Q01DX001 (ip), vehicle: saline) was 6 of 6, the survivor count (dose: 39.0 mg/kg/injection, schedule: Q01DX001 (oral), vehicle: saline) was 6 of 6 and the survivor count (dose: 39.0 mg/kg/injection, schedule: Q01DX001 (sc), vehicle: saline) was 6 of 6. For the same compound, the survivor count (dose: 39.0 mg/kg/injection, schedule: Q01DX005 (ip), vehicle: saline) was 6 of 6, the survivor count (dose: 39.0 mg/kg/injection, schedule: Q01DX009 (oral), vehicle: saline) was 6 of 6 and the survivor count (dose: 39.0 mg/kg/injection, schedule: Q01DX009 (sc), vehicle: saline) was 6 of 6. For the same compound, the survivor count (dose: 39.0 mg/kg/injection, schedule: Q04DX003 (ip), vehicle: saline) was 6 of 6, the survivor count (dose: 39.0 mg/kg/injection, schedule: Q08DX002 (ip), vehicle: saline) was 6 of 6 and the survivor count (dose: 40.0 mg/kg/injection, schedule: Q04DX002 (ip), vehicle: other) was 2 of 3. For the same compound, the survivor count (dose: 42.0 mg/kg/injection, schedule: Q01DX001 (ip), vehicle: saline with Tween-80) was 10 of 10, the survivor count (dose: 50.0 mg/kg/injection, schedule: Q01DX001 (ip), vehicle: other) was 5 of 5 and the survivor count (dose: 50.0 mg/kg/injection, schedule: Q01DX001 (ip), vehicle: saline) was 6 of 6. The survivor count (dose: 50.0 mg/kg/injection, schedule: Q06HX004 (ip), vehicle: saline) was 1 of 6, the survivor count (dose: 50.0 mg/kg/injection, schedule: Q08DX003 (ip), vehicle: saline) was 6 of 6 and the survivor count (dose: 65.0 mg/kg/injection, schedule: Q01DX001 (ip), vehicle: saline) was 6 of 6. The survivor count (dose: 65.0 mg/kg/injection, schedule: Q01DX001 (oral), vehicle: saline) was 6 of 6, the survivor count (dose: 65.0 mg/kg/injection, schedule: Q01DX001 (sc), vehicle: saline) was 6 of 6 and the survivor count (dose: 65.0 mg/kg/injection, schedule: Q01DX009 (oral), vehicle: saline) was 6 of 6. For the same compound, the survivor count (dose: 65.0 mg/kg/injection, schedule: Q04DX003 (ip), vehicle: saline) was 6 of 6, the survivor count (dose: 65.0 mg/kg/injection, schedule: Q08DX002 (ip), vehicle: saline) was 6 of 6 and the survivor count (dose: 100.0 mg/kg/injection, schedule: Q01DX001 (ip), vehicle: saline) was 3 of 6. For the same compound, the survivor count (dose: 100.0 mg/kg/injection, schedule: Q08DX003 (ip), vehicle: saline) was 2 of 6, the survivor count (dose: 108.0 mg/kg/injection, schedule: Q01DX001 (ip), vehicle: saline) was 6 of 6 and the survivor count (dose: 108.0 mg/kg/injection, schedule: Q01DX001 (oral), vehicle: saline) was 6 of 6. For the same compound, the survivor count (dose: 108.0 mg/kg/injection, schedule: Q01DX001 (sc), vehicle: saline) was 6 of 6, the survivor count (dose: 108.0 mg/kg/injection, schedule: Q08DX002 (ip), vehicle: saline) was 5 of 6 and the survivor count (dose: 180.0 mg/kg/injection, schedule: Q01DX001 (oral), vehicle: saline) was 6 of 6.

With `O=c1ccn(C2OC(CO)C(O)C2O)c(=O)[nH]1` (stereo unspecified) the survivor count (dose: 0.2 mg/kg/injection, schedule: Q01DX011 (adlb), vehicle: water) was 10 of 10 and the survivor count (dose: 2.0 mg/kg/injection, schedule: Q01DX011 (adlb), vehicle: water) was 10 of 10.
